Results published in PubChem BioAssay AID540276 (National Center for Advancing Translational Sciences (NCATS), 2011).
The campaign covered roughly 300,000 compounds. About 5,400 (1.8%) were called active. Inconclusive results, whose numbers are uncertain, are shown with a selection of clear calls. The call rests on the fitted dose curve; tested in HEK293 cells. Potencies beside an inconclusive call are fits to weak or partial responses and may not hold up.

Experiment: qHTS for inhibitors of binding or entry into cells for Marburg Virus
Conditions: Marburg virus pseudotyped entry inhibition, cell reporter; activity change, negative = inhibition: at 37.8 µM (top of the series) unless noted
On the % scale 0 is the no-effect control and ±100 the full control effect; potency means the concentration at half of the fitted maximal effect.

SMILES | Potency | activity change, negative = inhibition
NC1CC1c1ccccc1 (stereo not drawn) | inconclusive: 5.62 µM [inhibitor, full curve, poor fit] | 
O=c1c2[nH]c3ccccc3c2ncn1CCC1=CCCCC1 | inconclusive: 4.61 µM [activator, single point] | 
CC(=O)c1cc(C(=O)Nc2ccc3ccccc3c2)c(C)o1 |  | inactive: 5.02% [at 46.1 µM]
Cc1ccc2nc(N3CCN(C)CC3)[nH]c2c1 | inconclusive: 6.31 µM [activator, partial curve, poor fit] | 
CCCP(=O)(CC(=O)O)c1ccccc1 (stereo not drawn) | inconclusive: 35.5 µM [activator, single point] | 
C=C(C)C(O)C=Cc1ccc(C(F)(F)F)cc1 (stereo not drawn) | inconclusive: 0.0188 µM [inhibitor, full curve, poor fit] | 
c1cc2n(c1)-c1c(ccc3c1OCO3)CNC2c1ccc2c(c1)OCO2 (stereo not drawn) | inconclusive: 11.2 µM [inhibitor, partial curve, poor fit] | 
COc1ccc(C2=NS(=O)(=O)N(C)C(C(=O)Nc3ccc(C(C)=O)cc3)=C2)cc1OC | inconclusive: 35.5 µM [inhibitor, single point] | 
Cc1ccc(S(=O)(=O)Nc2cc(C)c(O)cc2C)cc1 | inconclusive: 7.08 µM [inhibitor, partial curve] | 
Cc1oc(-c2ccc(Cl)cc2)nc1CSCC(=O)NC1CCN(Cc2ccccc2)CC1 | inconclusive: 11.2 µM [inhibitor, partial curve] | 
Cc1cccc(C(=O)Nc2ccc(C(=O)N3CCCCC3C)cc2)c1 (stereo not drawn) |  | inactive: -18.2%
Cc1ccc(C(=O)N2CCN(c3ccc([N+](=O)[O-])cc3)CC2)o1 | inconclusive: 25.1 µM [inhibitor, partial curve, poor fit] | 
CC(C)C[C@H](N)c1nnc(SCc2ccc(Cl)cc2Cl)o1 | inconclusive: 31.6 µM [inhibitor, partial curve, poor fit] | 
COc1ccc2c(c1)C1(C)CC(C)(C)N2C(=O)N1c1ccccc1 (stereo not drawn) |  | inactive: -26.1%
O=C(Nc1ccc2c(c1)CCCN2C(=O)c1cccs1)c1cccc(F)c1 | inconclusive: 1.41 µM [inhibitor, full curve, poor fit] | 
COC(=O)CSC1=C(C#N)C(c2sccc2C)CC(=O)N1 (stereo not drawn) | inconclusive: 35.5 µM [inhibitor, single point] | 
CN(C)S(=O)(=O)c1ccc(Cl)c(NC(=O)CN2CCc3ccccc3C2)c1 | inconclusive: 7.08 µM [inhibitor, partial curve, poor fit] | 
O=C(NCc1ccccc1)c1ccc(C(=O)N(C2CCCCC2)C2CCCCC2)cc1 | inconclusive: 7.3 µM [inhibitor, partial curve, poor fit] | 
CN(CCO)c1ccc([N+](=O)[O-])cc1C(=O)O | inconclusive: 17.8 µM [activator, single point] | 
O=C(OCCOc1ccccc1)c1cccc(S(=O)(=O)N2CCOCC2)c1 |  | inactive: 5.97%
CCOc1c(Br)cc(C2C=C(C(=O)O)Nc3ncnn32)cc1OC (stereo not drawn) | inconclusive: 5.62 µM [inhibitor, single point] | 
CCN(CC)NC(=O)Nc1ccccc1 |  | inactive: 6.18% [at 46.1 µM]

Quoted from the listing.
For Potency, `O=C(NCc1ccccc1)c1ccc(C(=O)N(C2CCCCC2)C2CCCCC2)cc1` shows inconclusive: 7.3 µM [inhibitor, partial curve, poor fit]
For Potency, `O=c1c2[nH]c3ccccc3c2ncn1CCC1=CCCCC1` shows inconclusive: 4.61 µM [activator, single point]
For Potency, `CCOc1c(Br)cc(C2C=C(C(=O)O)Nc3ncnn32)cc1OC` (stereo not drawn) shows inconclusive: 5.62 µM [inhibitor, single point]

The list goes on:

SMILES | Potency | activity change, negative = inhibition
CC(C)(C)N=C1NN=C(c2cc3ccccc3o2)CS1 | inconclusive: 15.8 µM [inhibitor, single point] | 
OCCN1C2=NCCCN2c2ccccc21 | inconclusive: 22.4 µM [inhibitor, single point] | 
CCOC(=O)c1c(C)oc2c1c(C(c1cccnc1)N1CCOCC1)c(O)c1ccccc12 (stereo not drawn) |  | inactive: 15.5%
CCOc1ccccc1NC(=O)c1cc(-c2ccncc2)nc2c(Cl)cccc12 | inconclusive: 2.51 µM [inhibitor, full curve, poor fit] | 
COCCn1nnnc1C(c1ccccn1)N1CCN(c2cc(C)ccc2C)CC1 (stereo not drawn) | inconclusive: 9.2 µM [inhibitor, partial curve, poor fit] | 
CC(C)(C)OC(=O)NN1CC(=O)N2[C@@H](Cc3c([nH]c4ccccc34)C2(C)C)C1=O | inconclusive: 3.55 µM [activator, single point] | 
CCOc1ccccc1NC(=O)Cn1nnc(C(=O)NCc2cccs2)c1N | inconclusive: 2.82 µM [inhibitor, full curve, poor fit] | 
COC(=O)C1=C(N)OC2=C(C(=O)CC(C)(C)C2)C1c1cccnc1 (stereo not drawn) | inconclusive: 31.6 µM [activator, single point] | 
O=C(CSc1nnc2ccccn12)Nc1cccc(-c2nc3ccccc3s2)c1 | inconclusive: 1.41 µM [activator, full curve, poor fit] | 
Oc1c(Cl)cc(Cl)cc1CNc1ccccn1 | inconclusive: 0.316 µM [inhibitor, partial curve, poor fit] | 
CCOc1ccc(NC(=S)N2CCN(C/C=C/c3ccccc3)CC2)cc1 |  | inactive: -21% [at 46.1 µM]
O[C@@H]1CN(C2CCCCC2)CC[C@H]1N1CCN(CCc2ccccc2)CC1 | inconclusive: 12.6 µM [inhibitor, single point] | 
Cc1sc(NC(=S)NC(=O)C2CCCCC2)c(C(N)=O)c1C |  | inactive: 13.2%
CCN(CC)CCNC(=O)COc1ccc(Cl)cc1Cl | inconclusive: 0.058 µM [inhibitor, full curve, poor fit] | 
COc1ccc(CSc2n[nH]c(C)n2)cc1Br |  | inactive: 9.73%
O=C(CCl)N1N=C(c2ccco2)CC1c1cccs1 (stereo not drawn) | inconclusive: 35.5 µM [inhibitor, single point] | 
CCCCn1c(=N)n(CC(=O)c2ccco2)c2ccccc21 | inconclusive: 29.1 µM [inhibitor, single point] | 
O=C(C1CCCO1)N1CCN(S(=O)(=O)c2cc(F)ccc2F)CC1 (stereo not drawn) | inconclusive: 12.6 µM [activator, single point] | 
Cc1cc(NC(=O)OC2CCCCC2)ccc1[N+](=O)[O-] | active: 10 µM | 
CNS(=O)(=O)c1ccc(NC(=O)C2c3ccccc3Oc3ccccc32)cc1 | inconclusive: 8.91 µM [inhibitor, partial curve] | 
COc1ccc(-c2cc(CCCC(=O)NCCc3cc(OC)ccc3OC)no2)cc1 | inconclusive: 1.26 µM [inhibitor, full curve, poor fit] | 
